Source: the supplement of paper PMC10849652
The other results are listed elsewhere or left out.

Protein sequences, listed by entry. Tags and fused reporters are not part of them. Lines headed by an entry give the natural chain unless they say otherwise; changes in a name come on top.
UniProt O75937: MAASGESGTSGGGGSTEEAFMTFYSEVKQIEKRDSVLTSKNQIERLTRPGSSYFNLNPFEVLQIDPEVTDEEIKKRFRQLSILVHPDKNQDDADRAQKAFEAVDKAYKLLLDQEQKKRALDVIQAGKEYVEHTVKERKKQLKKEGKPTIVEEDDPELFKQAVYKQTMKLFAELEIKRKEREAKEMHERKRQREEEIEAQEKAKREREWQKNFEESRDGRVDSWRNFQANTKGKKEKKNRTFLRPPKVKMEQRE
UniProt Q96FX2: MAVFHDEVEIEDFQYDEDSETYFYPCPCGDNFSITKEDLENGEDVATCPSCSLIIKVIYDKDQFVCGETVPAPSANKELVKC
UniProt Q6V1X1: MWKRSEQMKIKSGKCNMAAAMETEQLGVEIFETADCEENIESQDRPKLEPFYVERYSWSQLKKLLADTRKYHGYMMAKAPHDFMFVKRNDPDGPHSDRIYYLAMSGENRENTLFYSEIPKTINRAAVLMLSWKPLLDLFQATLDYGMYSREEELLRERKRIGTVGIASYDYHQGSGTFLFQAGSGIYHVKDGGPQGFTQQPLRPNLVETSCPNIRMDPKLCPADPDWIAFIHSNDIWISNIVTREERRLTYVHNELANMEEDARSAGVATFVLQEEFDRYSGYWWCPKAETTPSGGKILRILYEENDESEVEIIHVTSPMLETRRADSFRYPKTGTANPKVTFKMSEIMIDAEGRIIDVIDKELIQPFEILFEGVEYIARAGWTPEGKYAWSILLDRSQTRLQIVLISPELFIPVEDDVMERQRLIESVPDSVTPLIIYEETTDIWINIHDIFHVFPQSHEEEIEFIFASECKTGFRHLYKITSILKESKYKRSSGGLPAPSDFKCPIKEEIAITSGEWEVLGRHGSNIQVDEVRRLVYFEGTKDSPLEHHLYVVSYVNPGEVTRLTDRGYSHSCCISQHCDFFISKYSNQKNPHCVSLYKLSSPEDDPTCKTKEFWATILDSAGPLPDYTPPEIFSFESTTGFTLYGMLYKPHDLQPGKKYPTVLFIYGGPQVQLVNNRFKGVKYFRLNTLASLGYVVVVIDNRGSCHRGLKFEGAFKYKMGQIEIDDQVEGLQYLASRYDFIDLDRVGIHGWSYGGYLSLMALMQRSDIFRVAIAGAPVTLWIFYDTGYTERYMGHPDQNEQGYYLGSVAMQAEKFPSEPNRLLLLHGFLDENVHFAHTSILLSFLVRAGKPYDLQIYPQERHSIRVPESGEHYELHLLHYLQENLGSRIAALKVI
UniProt Q9C005, whole entry, looked up: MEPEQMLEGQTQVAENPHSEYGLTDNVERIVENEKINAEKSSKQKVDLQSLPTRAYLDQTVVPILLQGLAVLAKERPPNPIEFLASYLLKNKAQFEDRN
UniProt Q7RTS9: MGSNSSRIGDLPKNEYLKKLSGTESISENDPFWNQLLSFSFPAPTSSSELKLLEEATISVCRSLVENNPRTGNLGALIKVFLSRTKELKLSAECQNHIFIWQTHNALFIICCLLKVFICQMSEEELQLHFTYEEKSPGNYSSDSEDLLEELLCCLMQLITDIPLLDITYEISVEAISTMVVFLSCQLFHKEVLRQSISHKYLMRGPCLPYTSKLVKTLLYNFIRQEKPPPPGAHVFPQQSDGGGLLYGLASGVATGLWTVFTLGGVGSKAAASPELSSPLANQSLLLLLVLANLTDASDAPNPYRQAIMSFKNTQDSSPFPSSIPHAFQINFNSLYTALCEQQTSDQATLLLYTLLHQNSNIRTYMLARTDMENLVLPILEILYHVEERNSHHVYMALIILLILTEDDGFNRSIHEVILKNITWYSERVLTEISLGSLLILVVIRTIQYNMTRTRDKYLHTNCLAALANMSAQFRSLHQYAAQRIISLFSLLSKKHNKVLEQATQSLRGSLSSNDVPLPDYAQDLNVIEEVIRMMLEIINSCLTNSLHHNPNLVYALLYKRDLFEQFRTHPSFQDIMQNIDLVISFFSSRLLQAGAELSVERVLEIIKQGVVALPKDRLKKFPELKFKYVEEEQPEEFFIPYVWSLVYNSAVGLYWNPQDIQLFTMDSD
UniProt Q5JPH6: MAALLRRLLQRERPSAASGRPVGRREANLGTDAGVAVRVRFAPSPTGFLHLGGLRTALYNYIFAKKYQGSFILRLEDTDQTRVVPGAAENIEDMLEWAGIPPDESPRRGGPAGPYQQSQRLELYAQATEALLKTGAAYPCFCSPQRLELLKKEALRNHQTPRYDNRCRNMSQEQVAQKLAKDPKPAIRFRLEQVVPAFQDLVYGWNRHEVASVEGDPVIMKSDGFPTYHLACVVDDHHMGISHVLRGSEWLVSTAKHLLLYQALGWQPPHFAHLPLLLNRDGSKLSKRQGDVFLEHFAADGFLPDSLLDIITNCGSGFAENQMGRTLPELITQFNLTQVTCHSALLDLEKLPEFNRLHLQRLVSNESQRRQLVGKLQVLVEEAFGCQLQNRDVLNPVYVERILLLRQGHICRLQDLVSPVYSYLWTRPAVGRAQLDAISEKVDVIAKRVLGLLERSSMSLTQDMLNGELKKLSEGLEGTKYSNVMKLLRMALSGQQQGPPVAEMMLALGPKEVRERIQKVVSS
UniProt Q13409, whole entry, looked up: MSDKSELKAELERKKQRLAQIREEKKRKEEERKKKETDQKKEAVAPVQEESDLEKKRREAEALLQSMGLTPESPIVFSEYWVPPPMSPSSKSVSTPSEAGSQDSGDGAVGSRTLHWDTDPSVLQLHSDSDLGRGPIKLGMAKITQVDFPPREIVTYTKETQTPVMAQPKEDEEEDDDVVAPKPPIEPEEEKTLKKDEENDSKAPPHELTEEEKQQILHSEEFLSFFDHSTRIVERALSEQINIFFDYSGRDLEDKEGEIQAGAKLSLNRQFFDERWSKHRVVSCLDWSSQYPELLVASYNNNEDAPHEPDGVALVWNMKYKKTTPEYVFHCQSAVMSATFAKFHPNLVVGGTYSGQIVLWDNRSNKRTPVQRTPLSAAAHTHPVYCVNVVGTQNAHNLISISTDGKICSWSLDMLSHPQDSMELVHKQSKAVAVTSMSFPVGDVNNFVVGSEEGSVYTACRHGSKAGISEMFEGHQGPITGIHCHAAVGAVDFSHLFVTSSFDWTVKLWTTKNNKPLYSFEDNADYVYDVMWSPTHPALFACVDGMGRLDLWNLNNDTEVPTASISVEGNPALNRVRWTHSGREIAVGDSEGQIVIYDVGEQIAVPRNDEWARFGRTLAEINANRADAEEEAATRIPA
UniProt O00716: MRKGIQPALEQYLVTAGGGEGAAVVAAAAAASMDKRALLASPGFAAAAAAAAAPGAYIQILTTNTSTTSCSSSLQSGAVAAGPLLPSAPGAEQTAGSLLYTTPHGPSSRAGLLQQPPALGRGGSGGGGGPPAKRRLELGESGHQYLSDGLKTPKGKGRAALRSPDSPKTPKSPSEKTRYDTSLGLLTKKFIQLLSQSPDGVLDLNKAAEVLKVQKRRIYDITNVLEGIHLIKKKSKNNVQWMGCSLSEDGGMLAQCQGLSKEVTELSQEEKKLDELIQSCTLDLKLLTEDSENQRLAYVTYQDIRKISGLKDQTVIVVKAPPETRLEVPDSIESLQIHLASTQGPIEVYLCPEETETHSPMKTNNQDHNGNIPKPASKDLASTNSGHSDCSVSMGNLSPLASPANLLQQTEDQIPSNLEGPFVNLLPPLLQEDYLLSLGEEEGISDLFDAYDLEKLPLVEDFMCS
UniProt Q96F86: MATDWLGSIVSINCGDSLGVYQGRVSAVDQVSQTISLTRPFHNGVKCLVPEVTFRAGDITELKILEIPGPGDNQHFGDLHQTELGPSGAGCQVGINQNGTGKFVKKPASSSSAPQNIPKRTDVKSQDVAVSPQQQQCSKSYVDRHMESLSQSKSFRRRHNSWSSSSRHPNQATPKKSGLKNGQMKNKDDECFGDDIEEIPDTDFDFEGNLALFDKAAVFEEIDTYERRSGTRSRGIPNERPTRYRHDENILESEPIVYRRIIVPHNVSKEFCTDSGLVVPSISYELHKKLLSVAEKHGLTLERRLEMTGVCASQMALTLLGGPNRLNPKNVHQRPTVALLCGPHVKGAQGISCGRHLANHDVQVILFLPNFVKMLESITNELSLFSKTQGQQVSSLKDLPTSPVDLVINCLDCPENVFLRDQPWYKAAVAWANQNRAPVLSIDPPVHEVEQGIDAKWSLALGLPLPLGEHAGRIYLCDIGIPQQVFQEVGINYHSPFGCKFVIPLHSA
UniProt Q99848: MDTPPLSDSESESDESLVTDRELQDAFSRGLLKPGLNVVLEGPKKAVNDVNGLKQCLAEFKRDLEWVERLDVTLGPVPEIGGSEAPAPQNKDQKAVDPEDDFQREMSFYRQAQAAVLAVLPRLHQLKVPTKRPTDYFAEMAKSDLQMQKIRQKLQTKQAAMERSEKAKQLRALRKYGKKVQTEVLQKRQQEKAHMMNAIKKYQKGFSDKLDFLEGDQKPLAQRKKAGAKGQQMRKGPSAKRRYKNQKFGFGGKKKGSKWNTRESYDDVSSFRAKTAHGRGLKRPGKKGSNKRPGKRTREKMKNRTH
UniProt Q6UX65: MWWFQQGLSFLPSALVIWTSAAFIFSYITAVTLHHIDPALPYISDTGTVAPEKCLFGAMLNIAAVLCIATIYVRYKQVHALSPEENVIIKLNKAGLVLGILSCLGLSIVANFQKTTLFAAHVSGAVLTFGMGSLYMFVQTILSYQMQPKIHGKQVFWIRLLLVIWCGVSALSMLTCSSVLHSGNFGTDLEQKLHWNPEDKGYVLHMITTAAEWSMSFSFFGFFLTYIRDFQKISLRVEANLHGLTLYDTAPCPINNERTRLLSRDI
UniProt Q9H410: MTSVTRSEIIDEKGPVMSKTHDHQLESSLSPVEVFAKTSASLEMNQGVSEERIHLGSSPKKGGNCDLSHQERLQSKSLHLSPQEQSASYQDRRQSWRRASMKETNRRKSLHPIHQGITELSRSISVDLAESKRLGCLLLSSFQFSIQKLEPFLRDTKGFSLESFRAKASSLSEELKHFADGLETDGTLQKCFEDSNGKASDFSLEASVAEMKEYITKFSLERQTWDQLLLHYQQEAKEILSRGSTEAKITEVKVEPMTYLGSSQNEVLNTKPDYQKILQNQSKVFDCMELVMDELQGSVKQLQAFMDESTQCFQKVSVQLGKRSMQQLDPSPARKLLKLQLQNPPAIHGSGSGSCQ
UniProt Q96DC8: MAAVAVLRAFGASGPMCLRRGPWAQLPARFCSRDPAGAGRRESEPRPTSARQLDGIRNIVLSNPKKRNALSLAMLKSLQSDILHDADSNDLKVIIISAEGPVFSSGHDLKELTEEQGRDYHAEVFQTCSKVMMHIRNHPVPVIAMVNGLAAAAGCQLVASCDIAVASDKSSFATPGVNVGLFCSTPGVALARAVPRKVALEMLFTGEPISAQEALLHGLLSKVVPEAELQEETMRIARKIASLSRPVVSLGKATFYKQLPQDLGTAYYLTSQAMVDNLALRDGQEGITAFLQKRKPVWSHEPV
UniProt P50570: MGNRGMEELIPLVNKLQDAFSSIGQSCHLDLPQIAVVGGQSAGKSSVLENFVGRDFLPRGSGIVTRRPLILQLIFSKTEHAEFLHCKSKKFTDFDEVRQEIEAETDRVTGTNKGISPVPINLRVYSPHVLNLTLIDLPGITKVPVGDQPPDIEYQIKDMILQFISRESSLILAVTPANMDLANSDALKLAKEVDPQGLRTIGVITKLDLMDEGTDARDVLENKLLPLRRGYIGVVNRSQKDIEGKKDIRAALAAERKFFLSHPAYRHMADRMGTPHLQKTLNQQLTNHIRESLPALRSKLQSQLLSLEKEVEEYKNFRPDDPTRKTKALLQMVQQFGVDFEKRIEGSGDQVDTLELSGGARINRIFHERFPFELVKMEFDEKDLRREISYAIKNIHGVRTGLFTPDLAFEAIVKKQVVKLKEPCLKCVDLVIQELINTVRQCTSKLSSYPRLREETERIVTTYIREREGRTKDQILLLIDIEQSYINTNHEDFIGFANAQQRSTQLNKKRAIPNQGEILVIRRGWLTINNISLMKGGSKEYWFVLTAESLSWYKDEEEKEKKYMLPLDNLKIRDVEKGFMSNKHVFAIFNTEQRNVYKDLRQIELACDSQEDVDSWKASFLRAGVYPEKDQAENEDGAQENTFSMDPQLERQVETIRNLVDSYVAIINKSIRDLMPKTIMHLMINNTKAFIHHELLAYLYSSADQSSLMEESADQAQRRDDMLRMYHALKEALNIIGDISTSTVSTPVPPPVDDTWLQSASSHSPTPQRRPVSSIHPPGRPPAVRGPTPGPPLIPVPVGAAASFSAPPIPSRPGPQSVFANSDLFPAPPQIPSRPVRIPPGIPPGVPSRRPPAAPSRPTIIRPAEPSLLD
UniProt Q96EV8: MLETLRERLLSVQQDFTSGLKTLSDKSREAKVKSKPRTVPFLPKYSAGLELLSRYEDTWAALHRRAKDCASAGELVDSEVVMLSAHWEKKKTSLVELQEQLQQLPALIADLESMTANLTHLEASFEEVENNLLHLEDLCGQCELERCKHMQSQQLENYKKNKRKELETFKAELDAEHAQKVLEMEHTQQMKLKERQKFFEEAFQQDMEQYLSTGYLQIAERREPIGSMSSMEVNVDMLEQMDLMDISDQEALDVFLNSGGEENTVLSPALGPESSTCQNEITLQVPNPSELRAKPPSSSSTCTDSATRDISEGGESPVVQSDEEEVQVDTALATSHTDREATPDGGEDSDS

What was measured:
Assay in all cases: log2 fold change, soluble protein after heating vs DMSO (PISA); higher = thermal stabilisation; K562 cells, 10 uM, 30 min; active = over 0.2 and 3.5 SD of the protein, either way, in both replicates (recomputed)
[1] = compound: CC[C@@H]1C(=O)N(C)c2cnc(Nc3ccc(C(=O)NC4CCN(C)CC4)cc3OC)nc2N1C1CCCC1
Outline: (§1)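 Soluble protein was quantified by TMTpro 16plex LC-MS/MS after channel sums were equalised. It was obtained as the supernatant after 21,000xg for 90 min from pooled aliquots of K562 cells (2×10^6 cells/mL, 10 μM compound, 30 min) heated for 3 min across 48°C-58°C and extracted in PBS with 0.5% NP-40 at 4°C. Thermal stability values are relative to control samples and come from duplicates. They are given as log2 fold changes.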

[2] = compound: CC[C@@H]1C(=O)N(C)c2cnc(Nc3ccc(C(=O)N[C@H]4CC[C@H](N5CCN(CC6CC6)CC5)CC4)cc3OC)nc2N1C(C)C [volasertib]
Outline: as §1

[3] = compound: CC[C@H](C)N1C=C(C2=C(C=C(C=C21)C3=CN=C(C=C3)N4CCNCC4)C(=O)NCC5=C(C=C(NC5=O)C)C)C
Outline: as §1

[4] = compound: CC[C@H](C)[C@@H](C(=O)N[C@@H]([C@@H](C)O)C(=O)N[C@@H](CC(C)C)C(=O)[C@]1(CO1)C)NC(=O)[C@H]([C@@H](C)CC)N(C)C(=O)C [epoxomicin]
Outline: as §1

[5] = compound: CCn1c(C(=O)N(C2CC2)C2CC2)cc2c3c(ncn3C)c(Nc3cc(C)n(C)n3)nc21
Outline: as §1

[6] = compound: CCn1cc(-c2ccnc3[nH]c(-c4cccc(CN(C)C)c4)cc23)c(-c2ccc(NC(=O)N(C)C)cc2)n1
Outline: as §1

[7] = compound: CN(C)CC(=O)Nc1ccc2[nH]c(=O)c3ccccc3c2c1
Outline: as §1

[8] = compound: CN(CCOC1=CC=C(C=C1)C[C@H]2C(=O)NC(=O)S2)C3=CC=CC=N3 (racemic) [rosiglitazone]
Outline: as §1

[9] = compound: CN1C2=C(C3=C1C(=O)N(N=C3)CC4=CC(=CC=C4)N)SC(=C2)S(=O)C
Outline: as §1

[10] = compound: CN1CCC(CNc2ccc3ncc(-c4cccc(OC(F)(F)F)c4)n3n2)CC1
Outline: as §1

Measured: log2 fold change

DNAJC8 (UniProt O75937)
inactive: [1] -0.063 | [2] -0.158 | [3] 0.034 | [4] 0.034 | [5] 0.02 | [6] -0.004 | [7] -0.004 | [8] 0.037 | [9] -0.075 | [10] -0.029

DPH3 (UniProt Q96FX2)
inactive: [1] 0.013 | [2] 0.17 | [3] -0.007 | [4] 0.11 | [5] 0.021 | [6] 0.25 | [7] -0.006 | [8] 0.056 | [9] -0.139 | [10] 0.093

DNTTIP2 (UniProt Q5QJE6)
inactive: [1] 0.047 | [2] -0.002 | [3] 0.031 | [4] -0.144 | [6] 0.09 | [7] -0.028 | [9] 0.226 | [10] -0.028

DPP8 (UniProt Q6V1X1)
inactive: [1] 0.143 | [2] 0.007 | [3] -0.025 | [4] -0.045 | [6] 0.002 | [7] -0.057 | [9] -0.047 | [10] -0.106

DPY30 (UniProt Q9C005)
inactive: [1] -0.032 | [2] -0.03 | [3] 0.022 | [4] 0.643 | [5] -0.023 | [6] 0.125 | [7] 0.129 | [8] -0.161 | [9] 0.087 | [10] 0.228

DTWD2 (UniProt Q8NBA8)
inactive: [1] -0.047 | [2] -0.048 | [3] 0.057 | [4] -0.015 | [6] -0.018 | [7] -0.106 | [9] -0.066 | [10] 0.035

Copied from above (2 entries):
DNTTIP2 (UniProt Q5QJE6)
inactive: [1] 0.047 | [2] -0.002 | [3] 0.031 | [4] -0.144 | [6] 0.09 | [7] -0.028 | [9] 0.226 | [10] -0.028

DPP8 (UniProt Q6V1X1)
inactive: [1] 0.143 | [2] 0.007 | [3] -0.025 | [4] -0.045 | [6] 0.002 | [7] -0.057 | [9] -0.047 | [10] -0.106

Remaining list, next part:

DYM (UniProt Q7RTS9)
inactive: [1] -0.162 | [2] -0.442 | [3] 0.074 | [4] 0.002 | [5] -0.085 | [6] -0.002 | [7] 0.144 | [8] 0.017 | [10] -0.199

EARS2 isoform 2 (UniProt Q5JPH6)
inactive: [1] -0.308 | [2] -0.508 | [3] 0.113 | [4] 0.199 | [5] -0.329 | [7] 0.171 | [8] 0.039 | [9] -0.143

DXO (UniProt O77932)
inactive: [1] 0.112 | [3] -0.022 | [4] -0.082 | [5] 0.062 | [6] -0.074 | [7] -0.048 | [8] 0.097 | [9] -0.085 | [10] -0.123

DYNC1I2 isoform 2 (UniProt Q13409)
inactive: [1] 0.012 | [2] 0.045 | [4] -0.06

DYNC1I2 isoform 5 (UniProt Q13409)
inactive: [1] 0.004 | [2] 0.005 | [3] 0.004 | [4] 0.026 | [6] -0.003 | [7] 0.002 | [9] -0.041 | [10] -0.035

DOP1B (UniProt Q9Y3R5)
inactive: [1] 0.018 | [3] -0.097 | [4] -0.08 | [6] -0.108 | [7] -0.166 | [8] 0.129 | [10] -0.239

E2F3 (UniProt O00716)
inactive: [1] 0.079 | [3] 0.029 | [4] 0.098 | [5] -0.123 | [6] 0.039 | [7] 0.07 | [8] -0.016 | [10] -0.223

EDC3 (UniProt Q96F86)
inactive: [1] -0.006 | [2] -0.192 | [3] 0.057 | [4] 0.003 | [6] -0.031 | [7] 0.058 | [9] 0.094 | [10] -0.251

DYSF isoform 13 (UniProt O75923)
inactive: [1] 0.062 | [3] -0.145 | [4] -0.195 | [5] 0.014 | [6] -0.034 | [7] 0.023 | [8] -0.081 | [10] -0.016

DNPEP (UniProt B9ZVU2)
inactive: [1] 0.001 | [2] 0.248 | [5] 0.027 | [6] 0.085 | [7] 0.019 | [9] -0.057 | [10] -0.047

DTYMK (UniProt P23919)
active: [6] -0.245
inactive: [1] 0.044 | [2] 0.171 | [3] -0.03 | [4] 0.039 | [7] 0.01 | [9] -0.04 | [10] -0.037

EBNA1BP2 (UniProt Q99848)
inactive: [1] 0.167 | [2] 0.351 | [3] 0.021 | [4] -0.343 | [6] 0.132 | [7] -0.106 | [9] 0.379 | [10] 0.197

E2F4 (UniProt Q16254)
active: [10] -0.245
inactive: [1] -0.057 | [2] -0.139 | [3] 0.036 | [4] -0.008 | [6] -0.025 | [7] -0.024 | [9] 0.009

DRAM2 (UniProt Q6UX65)
inactive: [1] 0.069 | [2] -0.038 | [4] -0.089 | [7] 0.093

DSN1 (UniProt Q9H410)
inactive: [1] -0.218 | [3] -0.034 | [4] -0.004 | [7] 0.007 | [9] -0.008
active: [2] -0.418

ECHDC3 (UniProt Q96DC8)
inactive: [1] -0.005 | [3] 0.167 | [4] 0.076 | [5] -0.003 | [6] -0.05 | [7] 0.028 | [8] 0.02 | [10] 0.17

EAPP (UniProt Q56P03)
inactive: [1] 0 | [2] -0.051 | [3] -0.005 | [5] -0.12 | [6] 0.005 | [7] -0.012 | [9] -0.022 | [10] 0.2

DYRK1A isoform 2 (UniProt Q13627)
inactive: [1] 0.015 | [2] -0.005 | [3] 0.104 | [4] 0.048 | [6] -0.05 | [7] 0.014 | [9] -0.024 | [10] -0.086

DOCK1 (UniProt Q14185)
inactive: [1] 0.127 | [2] -0.241 | [4] -0.052 | [5] -0.07 | [7] -0.019 | [8] -0.017 | [9] 0.028

DUS2 (UniProt Q9NX74)
inactive: [1] -0.052 | [2] -0.242 | [3] 0.037 | [4] 0.059 | [6] -0.029 | [7] 0.055 | [9] 0.115 | [10] -0.02

DYNLT1 (UniProt P63172)
inactive: [1] 0.02 | [2] 0.007 | [3] 0.045 | [5] -0.093 | [6] -0.114 | [7] 0.082 | [8] -0.044 | [9] -0.026 | [10] 0.131

DNM2 isoform 4 (UniProt P50570)
inactive: [1] 0.026 | [3] -0.125 | [4] 0.241 | [6] -0.01 | [9] 0.027 | [10] -0.252

DTNBP1 (UniProt Q96EV8)
inactive: [1] -0.017 | [2] 0.009 | [3] -0.002 | [4] 0.048 | [6] -0.086 | [7] -0.009 | [9] -0.028 | [10] 0.01
